Assay results reported in paper PMC6356446.
Results are given in words; binding and its absence hold for the method and conditions named. For part of these data: In cells and extracts the contact can be indirect. Some entries that bind do so weakly or less than the wild type. Values belong to the binder of their own block, whether it stands above or below them.

By UniProt entry, the sequences of proteins in these tests, tags left out. Residues count along the entry.
UniProt P21860, residues 20-1342: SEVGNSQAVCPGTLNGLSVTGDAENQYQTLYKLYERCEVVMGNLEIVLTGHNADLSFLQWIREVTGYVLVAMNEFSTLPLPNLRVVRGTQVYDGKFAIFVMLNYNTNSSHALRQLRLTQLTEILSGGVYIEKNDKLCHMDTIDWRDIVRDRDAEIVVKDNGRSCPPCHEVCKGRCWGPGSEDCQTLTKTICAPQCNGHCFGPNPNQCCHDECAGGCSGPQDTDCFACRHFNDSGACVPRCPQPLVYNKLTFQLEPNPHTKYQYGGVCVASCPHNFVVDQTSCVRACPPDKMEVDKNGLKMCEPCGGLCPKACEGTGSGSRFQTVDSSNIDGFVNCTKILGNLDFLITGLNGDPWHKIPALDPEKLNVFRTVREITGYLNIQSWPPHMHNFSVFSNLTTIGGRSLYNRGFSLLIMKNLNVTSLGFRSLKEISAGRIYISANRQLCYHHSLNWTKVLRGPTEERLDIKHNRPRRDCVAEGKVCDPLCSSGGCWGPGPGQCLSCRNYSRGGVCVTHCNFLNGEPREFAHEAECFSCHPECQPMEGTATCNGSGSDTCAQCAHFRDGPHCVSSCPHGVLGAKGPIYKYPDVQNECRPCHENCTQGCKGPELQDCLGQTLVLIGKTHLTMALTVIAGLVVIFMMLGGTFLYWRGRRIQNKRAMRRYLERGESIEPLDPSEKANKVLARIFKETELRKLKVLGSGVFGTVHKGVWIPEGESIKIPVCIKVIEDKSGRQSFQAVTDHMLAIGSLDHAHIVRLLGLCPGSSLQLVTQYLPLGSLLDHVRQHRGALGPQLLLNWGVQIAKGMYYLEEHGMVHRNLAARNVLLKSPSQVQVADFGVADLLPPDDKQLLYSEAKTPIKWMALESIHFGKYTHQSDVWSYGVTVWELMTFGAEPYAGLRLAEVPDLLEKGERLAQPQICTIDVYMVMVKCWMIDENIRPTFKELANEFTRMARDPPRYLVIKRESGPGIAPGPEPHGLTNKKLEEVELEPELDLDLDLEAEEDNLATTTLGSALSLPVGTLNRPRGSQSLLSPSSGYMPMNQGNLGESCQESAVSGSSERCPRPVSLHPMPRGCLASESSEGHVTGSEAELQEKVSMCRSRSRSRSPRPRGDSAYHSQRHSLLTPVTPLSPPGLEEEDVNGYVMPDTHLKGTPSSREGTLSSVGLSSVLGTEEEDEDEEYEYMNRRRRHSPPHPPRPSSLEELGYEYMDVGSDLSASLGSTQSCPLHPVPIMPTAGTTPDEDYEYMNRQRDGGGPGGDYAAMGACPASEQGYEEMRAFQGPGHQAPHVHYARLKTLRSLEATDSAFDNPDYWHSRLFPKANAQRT

How the values were obtained:
[1] = target: c-Met (human (endogenous in HCC413)), P08581; assay: co-IP; HCC413 cells untreated or pre-incubated with mannosidase inhibitors (KIF 10 uM, SWN 5.8 uM), then LZ-8 for 30 min; IP of EGFR or c-Met, immunoblot of LZ-8; only the binder purified; conditions: remark: other sources report otherwise
[2] = target: c-Met (human (endogenous in HCC413)), P08581; assay: far-Western, overlay or dot blot; affinity blot: RTKs immunoprecipitated from HCC413 cells (untreated or 10 uM KIF for 24 h), probed with biotin-labeled LZ-8, avidin-HRP chemiluminescent detection; only the binder purified; conditions: remark: other sources report otherwise
[3] = target: HER3 (human (endogenous in HCC413)) (UniProt P21860); assay: as above

binding [1]: binds
B1: Ling-Zhi-8, P14945 1-111 (natural protein)
chain: MSDTALIFRLAWDVKKLSFDYTPNWGRGNPNNFIDTVTFPKVLTDKAYTYRVAVSGRNLGVKPSYAVESDGSQKVNFLEYNSGYGIADTNTIQVFVVDPDTNNDFIIAQWN
modifications: here or on the partner: N-glycans (sites not given)

binding [2]: binds
B2: biotin-labeled LZ-8, P14945 1-111 (protein)
chain: MSDTALIFRLAWDVKKLSFDYTPNWGRGNPNNFIDTVTFPKVLTDKAYTYRVAVSGRNLGVKPSYAVESDGSQKVNFLEYNSGYGIADTNTIQVFVVDPDTNNDFIIAQWN
modifications: here or on the partner: biotin (site not stated); N-glycans (sites not given)

binding [3]: binds
B3: biotin-labeled LZ-8 (protein, UniProt P14945 1-111)
chain: MSDTALIFRLAWDVKKLSFDYTPNWGRGNPNNFIDTVTFPKVLTDKAYTYRVAVSGRNLGVKPSYAVESDGSQKVNFLEYNSGYGIADTNTIQVFVVDPDTNNDFIIAQWN
modifications: biotin (site not stated)
